Test results taken from publication PMC11122047.
These are yes or no findings as the source states them, for the method shown. In cells and extracts the contact can be indirect. Some binding calls cover weakened binding; strength is not graded here.

Amino acid sequences for entries named in this document (tags omitted). A change or cut given only in a name is not applied to a line headed by its entry. Chains listed by the source or under a name are the forms on record and can include a tag or linker. Residues count along the entry.
TrkAIII (alternative splice variant of the neurotrophin receptor tropomyosin-related kinase A, NTRK1/TrkA) (P04629, form named): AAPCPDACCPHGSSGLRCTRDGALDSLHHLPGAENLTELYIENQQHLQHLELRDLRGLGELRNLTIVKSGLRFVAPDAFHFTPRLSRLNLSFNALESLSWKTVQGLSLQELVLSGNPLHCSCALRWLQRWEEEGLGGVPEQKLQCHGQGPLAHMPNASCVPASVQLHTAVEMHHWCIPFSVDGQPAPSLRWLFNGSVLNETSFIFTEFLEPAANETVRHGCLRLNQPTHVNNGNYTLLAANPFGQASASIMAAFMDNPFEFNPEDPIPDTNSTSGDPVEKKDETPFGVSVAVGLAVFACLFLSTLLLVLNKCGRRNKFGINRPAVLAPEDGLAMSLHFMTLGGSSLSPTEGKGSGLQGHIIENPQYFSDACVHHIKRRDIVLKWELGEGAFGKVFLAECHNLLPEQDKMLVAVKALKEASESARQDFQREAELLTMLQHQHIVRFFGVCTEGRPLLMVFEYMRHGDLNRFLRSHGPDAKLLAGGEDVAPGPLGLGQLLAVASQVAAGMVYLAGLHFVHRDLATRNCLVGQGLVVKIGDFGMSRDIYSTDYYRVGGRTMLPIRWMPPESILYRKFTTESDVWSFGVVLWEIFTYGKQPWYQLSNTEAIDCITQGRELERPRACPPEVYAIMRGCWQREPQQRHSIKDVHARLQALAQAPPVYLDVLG
UniProt P11021, residues 19-654: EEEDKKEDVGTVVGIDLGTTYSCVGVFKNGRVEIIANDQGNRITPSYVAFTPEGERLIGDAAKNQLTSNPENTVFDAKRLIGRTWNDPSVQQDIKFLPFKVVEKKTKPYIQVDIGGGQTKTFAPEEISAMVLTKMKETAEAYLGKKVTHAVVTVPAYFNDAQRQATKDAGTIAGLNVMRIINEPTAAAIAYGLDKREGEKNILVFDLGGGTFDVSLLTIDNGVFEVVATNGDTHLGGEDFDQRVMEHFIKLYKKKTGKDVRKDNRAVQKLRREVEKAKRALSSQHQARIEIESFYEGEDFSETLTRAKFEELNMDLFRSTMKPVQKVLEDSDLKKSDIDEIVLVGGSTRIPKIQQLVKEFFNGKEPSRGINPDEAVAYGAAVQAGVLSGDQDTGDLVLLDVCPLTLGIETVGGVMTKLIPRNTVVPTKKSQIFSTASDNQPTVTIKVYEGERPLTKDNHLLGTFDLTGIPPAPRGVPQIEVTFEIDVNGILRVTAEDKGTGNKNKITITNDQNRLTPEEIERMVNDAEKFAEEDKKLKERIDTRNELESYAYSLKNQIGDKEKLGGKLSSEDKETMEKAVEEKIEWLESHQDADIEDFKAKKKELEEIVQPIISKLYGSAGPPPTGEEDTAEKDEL

Target: TrkAIII (alternative splice variant of the neurotrophin receptor tropomyosin-related kinase A, NTRK1/TrkA) (human) (UniProt P04629)
Experiment: co-IP; anti-TrkA antibody, protein A Sepharose, overnight at 4 °C in lysis buffer (PBS, 0.5% sodium deoxycholate, 1% NP40, 0.1% SDS); extracts of TrkAIII SH-SY5Y cells untreated or treated with 5 mM DTT for 6 h; Grp78 detected by Western blot

In the case of “78kDa glucose regulated protein (Grp78) (from UniProt P11021 19-654)”, the binding is reported as “binds”.
